Article PMC10989010, “A panel of janus kinase inhibitors identified with anti-inflammatory effects protect mice from lethal influenza virus infection” (Antimicrobial Agents and Chemotherapy, 2024)
pIC50: −log10 of the molar value.

Experiments:
IL-8 = experiment: U937 cell-based anti-inflammatory assay for influenza virus infection, IL-8 production (AlphaLISA); details: Homo sapiens, U-937, 72 h, read-out: IC50 IL-8, U937 cells infected with PR8 virus, 72 hours, mean of three independent experiments
Experimental: U937 cells were seeded in a 96-well culture plate at a density of 1.5 × 10^5 cells per well and incubated for 24 hours prior to virus infection. Subsequently, the cells in each well were infected with the PR8 virus at a multiplicity of infection of 0.05 and treated with serially diluted drugs or left untreated as a control. The drugs were serially diluted threefold, starting from an initial concentration of 200 µM down to 0.01 µM. […] Following this incubation, the supernatants were collected and subjected to AlphaLISA analysis to determine IL-8, IP-10, and MCP1 protein levels.
The AlphaLISA detection kits employed in this study were IL-8 (PerkinElmer AL224), IP-10 (PerkinElmer AL259), and MCP1 (PerkinElmer, AL244). U937 cell culture supernatants were measured for IL-8, IP-10, and MCP-1 protein levels using AlphaLISA assay as per the manufacturer’s recommendations. The ELISA and AlphaLISA plates were read using the Varioskan LUX multimode microplate reader (Thermo Scientiﬁc, Waltham, MA, USA).

MCP1 = experiment: cells; type: cell-based; details: Homo sapiens, U-937, 72 h, read-out: IC50 MCP1

CCS(=O)(=O)N1CC(CC#N)(n2cc(-c3ncnc4[nH]ccc34)cn2)C1 [Baricitinib]
pIC50 (IL-8): 7.15
pIC50 (MCP1): 7.10
